Test results: patent US4209527A, “Benzimidazolone derivatives” (Pfizer Inc., priority 1979, dated 1980)
For at least one compound, name, drawing or mass did not settle the structure.

Tested on: sorbitol levels in diabetic rats
Assay: control (inhibition) of sorbitol formation in diabetic rats
Type: in vivo, rat
Conditions: oral, 2.5 mg./kg. to 25 mg./kg.

In the case of `O=C(O)Cn1c(=O)n(Cc2ccccc2)c2ccccc21` [Example 15, 3-benzyl-2-oxo-1-benzimidazolineacetic acid], the “control (i.e., inhibit) the formation of sorbitol levels in diabetic rats” value is reported as “to a significantly high degree”.
